Here are results for two substances from paper PMC6260752.

Protein sequences, listed by entry. Tags and fused reporters are not part of them. Residues count along the entry.
UniProt P17181, residues 28-557: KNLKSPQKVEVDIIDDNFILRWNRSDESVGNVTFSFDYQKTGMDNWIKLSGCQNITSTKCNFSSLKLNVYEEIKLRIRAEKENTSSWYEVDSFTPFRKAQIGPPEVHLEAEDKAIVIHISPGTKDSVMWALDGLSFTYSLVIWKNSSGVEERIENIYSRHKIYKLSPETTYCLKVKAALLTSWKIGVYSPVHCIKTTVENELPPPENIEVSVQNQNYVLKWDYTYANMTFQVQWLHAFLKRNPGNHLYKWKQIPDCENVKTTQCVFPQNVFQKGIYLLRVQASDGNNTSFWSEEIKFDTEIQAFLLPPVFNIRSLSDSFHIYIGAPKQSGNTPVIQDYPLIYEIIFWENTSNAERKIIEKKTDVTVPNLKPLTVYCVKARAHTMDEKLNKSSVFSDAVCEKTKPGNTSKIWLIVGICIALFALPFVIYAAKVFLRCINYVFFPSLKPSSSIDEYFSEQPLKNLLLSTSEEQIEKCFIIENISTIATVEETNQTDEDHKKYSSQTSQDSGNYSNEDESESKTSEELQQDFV
UniProt P41279: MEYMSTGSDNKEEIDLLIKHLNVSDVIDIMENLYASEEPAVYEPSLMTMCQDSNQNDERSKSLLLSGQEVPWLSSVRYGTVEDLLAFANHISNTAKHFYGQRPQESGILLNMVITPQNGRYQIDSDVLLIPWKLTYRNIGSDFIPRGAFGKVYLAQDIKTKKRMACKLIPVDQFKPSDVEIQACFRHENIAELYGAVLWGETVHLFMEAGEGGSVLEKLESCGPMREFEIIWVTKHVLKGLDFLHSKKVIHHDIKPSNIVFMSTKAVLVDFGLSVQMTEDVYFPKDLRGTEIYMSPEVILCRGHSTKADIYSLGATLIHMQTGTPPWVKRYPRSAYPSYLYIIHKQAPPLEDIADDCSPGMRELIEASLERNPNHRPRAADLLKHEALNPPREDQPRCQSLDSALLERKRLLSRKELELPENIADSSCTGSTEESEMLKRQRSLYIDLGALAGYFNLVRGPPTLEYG

For assay [1], the target named is T1, Type I interferon receptor 2 (IFNAR2) (human (endogenous in T24)) (UniProt P48551).
T1 sequence: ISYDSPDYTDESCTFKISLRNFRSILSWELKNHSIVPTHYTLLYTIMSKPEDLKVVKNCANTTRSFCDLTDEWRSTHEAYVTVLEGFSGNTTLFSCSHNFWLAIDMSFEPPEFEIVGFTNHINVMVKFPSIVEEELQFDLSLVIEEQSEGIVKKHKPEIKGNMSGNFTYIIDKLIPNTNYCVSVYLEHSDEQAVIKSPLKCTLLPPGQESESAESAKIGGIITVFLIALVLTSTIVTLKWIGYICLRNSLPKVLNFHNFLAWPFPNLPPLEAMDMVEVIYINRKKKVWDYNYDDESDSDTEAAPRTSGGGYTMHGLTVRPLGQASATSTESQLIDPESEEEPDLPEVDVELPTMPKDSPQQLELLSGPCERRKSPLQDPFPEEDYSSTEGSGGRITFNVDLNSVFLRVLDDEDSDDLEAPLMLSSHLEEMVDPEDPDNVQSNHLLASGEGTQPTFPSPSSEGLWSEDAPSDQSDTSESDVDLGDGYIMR
As to the kind of experiment: co-IP; T24 cell extracts precleared with protein A/G agarose, incubated with IFNAR2 or IFNAR1 antibodies overnight at 4 °C, then protein A/G agarose 2 h at 4 °C; western blot; cells treated with IFN-α (1 × 10^4 U/mL) for specific time points, or with TPL2i (2 μM), PD98059 (40 μM) or roflumilast (1 μM). (In general: In western blotting, separated proteins are transferred to a membrane and probed.)

In assay [2] the target is Type I interferon receptor 1 (IFNAR1) (human (endogenous in T24)) (UniProt P17181). The description is as above.

Results are given in words; binding and its absence hold for the method and conditions named. Binding seen in cells or lysates may run through a third protein. Some binding calls cover weakened binding; strength is not graded here.

For the substance “phosphorylated TPL2 (pTPL2, Ser400) (from UniProt P41279 1-467) (enzyme)”, the binding result in assay [1] is recorded as “binds”. “tumor progression locus 2 (TPL2) (from UniProt P41279 1-467) (enzyme)”: the binding result was “no binding” in assay [2] and “binds” in assay [1].
